The target of this test is T1, friend leukemia integration 1 (FLI1) (UniProt Q01543).
T1 sequence: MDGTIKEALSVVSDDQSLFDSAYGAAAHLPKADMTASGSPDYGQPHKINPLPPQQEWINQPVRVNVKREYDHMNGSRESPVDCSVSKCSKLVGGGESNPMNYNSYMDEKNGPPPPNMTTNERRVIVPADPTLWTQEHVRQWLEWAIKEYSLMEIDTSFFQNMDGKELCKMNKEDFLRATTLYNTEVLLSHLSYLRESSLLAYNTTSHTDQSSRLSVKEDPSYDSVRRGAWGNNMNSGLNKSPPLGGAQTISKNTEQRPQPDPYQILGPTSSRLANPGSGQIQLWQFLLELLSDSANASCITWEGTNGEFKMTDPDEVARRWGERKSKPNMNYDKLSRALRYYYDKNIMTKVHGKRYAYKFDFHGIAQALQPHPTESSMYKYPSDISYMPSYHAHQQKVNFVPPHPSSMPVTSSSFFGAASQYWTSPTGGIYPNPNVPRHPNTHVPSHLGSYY
As to the kind of experiment: co-IP; FFA-treated Huh7 cells; lysates collected at 48 h post-transfection in RIPA buffer (10 mM sodium phosphate pH 8.0, 150 mM NaCl, 1% Triton X-100, 1% sodium deoxycholate, 0.1% SDS, 1 mM DTT, PMSF, PIC); 1 µg of antibody with protein A-agarose beads, 4 °C overnight; immunoblot.

Amino acid sequences for entries named in this document (tags omitted).
UniProt P21926: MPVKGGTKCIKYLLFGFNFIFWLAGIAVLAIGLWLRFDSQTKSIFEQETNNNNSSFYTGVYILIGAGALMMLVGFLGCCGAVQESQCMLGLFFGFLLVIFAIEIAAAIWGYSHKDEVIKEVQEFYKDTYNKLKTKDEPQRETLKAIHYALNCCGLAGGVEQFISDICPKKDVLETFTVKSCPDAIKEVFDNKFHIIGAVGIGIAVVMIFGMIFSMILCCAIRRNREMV

This note sets out measurements from article PMC11304330.

These are yes or no findings as the source states them, for the method shown. In cells and extracts the contact can be indirect. Some entries that bind do so weakly or less than the wild type.

“tetraspanin CD9 (from UniProt P21926 1-228)”: the binding entry was “binds”.
